Results deposited as PubChem BioAssay AID652272 (Drosophila RNAi Screening Center, 2013).

- Test: 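Genome-wide knock-down search for components of Hedgehog signalling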 (primary screen)
- Cell system: Drosophila clone 8 (Cl8) cells
- Knock-down reagent: long dsRNA against Drosophila genes
- Read-out: 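Plate reader light from a firefly reporter under a ptc promoter fragment that responds to Hedgehog, with Renilla light as transfection reference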
- Reading the numbers: firefly Hh reporter signal: higher = more ptc reporter light; Renilla reference signal: higher = more Renilla control light
- Call rule: 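Called a hit if the two-replicate mean z-score lies below -2 or above +3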
- Meaning of the calls: active = hit: reporter lowered or raised; inactive = not a hit
The screen tested about 21,000 reagents; shown is a random part of those that have a named target and a result. In the full data, 503 (2.4%) are marked active. 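Raw plate light values, not normalised; calls rest on replicate z-scores that were not deposited; hits include reporter decreases as well as increases.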 Not given: the amount of reagent, the time to read-out.

target gene,amplicon,"firefly Hh reporter signal, replicate 1","firefly Hh reporter signal, replicate 2","firefly Hh reporter signal, replicate 3","Renilla reference signal, replicate 1","Renilla reference signal, replicate 2",call
His3.3A (Histone H3.3A),DRSC03343,43938,17013,,829,1032,inactive
CG10747,DRSC02104,58682,30540,,1640,3760,inactive
Sce (Sex combs extra),DRSC16825,86098,70022,,2212,1907,inactive
Rbcn-3B (Rabconnectin-3B),DRSC18574,98353,1.64e5,,4128,6006,inactive
PXo (P[[i]]-sensitive XPR1 orthologue),DRSC09734,1.15e5,77716,,5529,3659,inactive
inaE (inactivation no afterpotential E),DRSC19376,94177,1.69e5,,3395,7393,inactive
inaE (inactivation no afterpotential E),DRSC19377,1.27e5,1.06e5,,2791,2624,inactive
inaE (inactivation no afterpotential E),DRSC19379,1.33e5,3.44e5,,4693,13981,inactive
inaE (inactivation no afterpotential E),DRSC19726,1.27e5,2.95e5,,4471,13104,inactive
CG17477,DRSC15239,65249,72295,,1184,1911,inactive
nrv1 (nervana 1),DRSC03382,75312,1.35e5,,3507,4811,inactive
Dh31 (Diuretic hormone 31),DRSC02196,98040,56360,,2544,4988,inactive
CG34232,DRSC05332,1.43e5,1.91e5,,3939,9819,inactive
CG4558,DRSC18369,89923,1.00e5,,1461,2368,inactive
Pkc98E (Protein C kinase 98E),DRSC16791,88033,1.15e5,,1282,2406,inactive
CG10339,DRSC04065,74241,36464,,1580,4003,inactive
CG15027,DRSC19608,1.18e5,2.67e5,,3953,9270,inactive
ND-B14.5A (NADH dehydrogenase (ubiquinone) B14.5 A subunit),DRSC18500,1.26e5,2.98e5,,4592,11010,inactive
Ssk (Snakeskin),DRSC10756,99674,1.20e5,,3792,4761,inactive
CG17598,DRSC20636,99353,71289,,2317,1837,inactive
"Pka-R1 (Protein kinase, cAMP-dependent, regulatory subunit type 1)",DRSC11674,46413,38449,,2417,2092,inactive
"Pka-R1 (Protein kinase, cAMP-dependent, regulatory subunit type 1)",DRSC11875,1.06e5,75817,,4064,2712,inactive
CG7488,DRSC16250,90356,1.01e5,,1364,1874,inactive
P5CS (Delta[1]-pyrroline-5-carboxylate synthase),DRSC11831,1.16e5,1.01e5,,5149,3936,inactive
P5CS (Delta[1]-pyrroline-5-carboxylate synthase),DRSC11832,96244,92793,,3402,2794,inactive
CG14787,DRSC18606,85092,1.97e5,,3795,9697,inactive
Spn28Dc (Serpin 28Dc),DRSC03029,49617,24688,,1956,3931,active
ncm (nucampholin),DRSC02179,11141,35959,,825,2195,active
CG10927,DRSC06014,1.22e5,1.12e5,,4993,4483,inactive
CG10494,DRSC04072,1.11e5,71131,,3958,2496,inactive

Laid out differently: results already given
{"target gene":"CG17598","amplicon":"DRSC20636","firefly Hh reporter signal, replicate 1":99353,"firefly Hh reporter signal, replicate 2":71289,"Renilla reference signal, replicate 1":2317,"Renilla reference signal, replicate 2":1837,"call":"inactive"}
{"target gene":"Pka-R1 (Protein kinase, cAMP-dependent, regulatory subunit type 1)","amplicon":"DRSC11674","firefly Hh reporter signal, replicate 1":46413,"firefly Hh reporter signal, replicate 2":38449,"Renilla reference signal, replicate 1":2417,"Renilla reference signal, replicate 2":2092,"call":"inactive"}
{"target gene":"Pka-R1 (Protein kinase, cAMP-dependent, regulatory subunit type 1)","amplicon":"DRSC11875","firefly Hh reporter signal, replicate 1":1.06e5,"firefly Hh reporter signal, replicate 2":75817,"Renilla reference signal, replicate 1":4064,"Renilla reference signal, replicate 2":2712,"call":"inactive"}
{"target gene":"CG7488","amplicon":"DRSC16250","firefly Hh reporter signal, replicate 1":90356,"firefly Hh reporter signal, replicate 2":1.01e5,"Renilla reference signal, replicate 1":1364,"Renilla reference signal, replicate 2":1874,"call":"inactive"}
{"target gene":"P5CS (Delta[1]-pyrroline-5-carboxylate synthase)","amplicon":"DRSC11831","firefly Hh reporter signal, replicate 1":1.16e5,"firefly Hh reporter signal, replicate 2":1.01e5,"Renilla reference signal, replicate 1":5149,"Renilla reference signal, replicate 2":3936,"call":"inactive"}

More entries follow.
target gene,amplicon,"firefly Hh reporter signal, replicate 1","firefly Hh reporter signal, replicate 2","firefly Hh reporter signal, replicate 3","Renilla reference signal, replicate 1","Renilla reference signal, replicate 2",call
PH4alphaNE1 (prolyl-4-hydroxylase-alpha NE1),DRSC16546,77616,74756,,1569,2180,inactive
CG17129,DRSC08508,1.05e5,51079,,4432,1196,inactive
"AP-1gamma (Adaptor Protein complex 1, gamma subunit)",DRSC18433,84418,1.50e5,,2763,5719,inactive
CG3704,DRSC18174,1.18e5,2.03e5,,4528,8091,inactive
CG3704,DRSC18645,1.54e5,3.30e5,,5542,11253,inactive
Hap40 (Huntingtin-associated protein 40 kDa),DRSC20085,1.05e5,78470,,2041,1922,inactive
RpL12 (Ribosomal protein L12),DRSC04344,30278,23085,,1340,3177,active
CG4951,DRSC15682,83696,97910,,1478,2343,inactive
CG14260,DRSC14755,72634,1.20e5,,2768,3908,inactive
kek4 (kekkon 4),DRSC03220,78928,68624,,3833,2828,inactive
Galphaf (G protein alpha subunit f),DRSC11171,1.20e5,,,2305,5733,inactive
sv (shaven),DRSC17221,54231,1.84e5,,1829,7556,inactive
CG10300,DRSC14225,4.99e5,1.30e5,,28108,4023,inactive
rtet (tetracycline resistance),DRSC14160,1.69e5,1.23e5,,6683,4969,inactive
Sf3a2 (Splicing factor 3a subunit 2),DRSC09801,78616,82012,,3816,3715,inactive
natalisin,DRSC14966,33089,38362,,1479,1201,inactive
natalisin,DRSC14967,1.05e5,82855,,3643,1692,inactive
CG12531,DRSC19466,59101,4.10e5,,1120,14761,inactive
GAPcenA (GTPase activating protein and centrosome-associated),DRSC10771,38004,50988,,5064,3677,inactive
CG11113,DRSC06039,81360,49393,,2008,4288,inactive
und (uninitiated),DRSC03629,1.06e5,76882,,4647,2832,inactive
CG31321,DRSC13028,49556,2.18e5,,11281,4244,inactive
Snmp2 (Sensory neuron membrane protein 2),DRSC10228,68149,1.08e5,,6529,5969,inactive
Snmp2 (Sensory neuron membrane protein 2),DRSC10843,54137,69920,,4283,4237,inactive
robls54B (roadblock similar 54B),DRSC05660,1.04e5,1.90e5,,2923,8055,inactive
CG13998,DRSC02330,1.14e5,46016,,3021,4548,inactive
CG11679,DRSC19415,75104,51904,,1987,1616,inactive
CG8517,DRSC07205,1.02e5,85296,,2848,6933,inactive
CG31251,DRSC16247,5.26e5,99738,,27207,2732,inactive
Gr98a (Gustatory receptor 98a),DRSC14719,4.31e5,61617,,2427,2427,inactive
CG34188,DRSC05549,1.41e5,2.90e5,,8499,10264,inactive
run (runt),DRSC20584,1.59e5,1.99e5,,4100,3995,inactive
CG6765,DRSC10706,20038,59415,,3389,4354,inactive
Irbp18 (Inverted repeat binding protein 18 kDa),DRSC10612,44984,64328,56720,5480,3995,inactive
p115,DRSC18813,59376,2.41e5,,1803,8557,inactive
CG43092,DRSC13572,44891,1.68e5,,9371,3451,inactive
CG11593,DRSC08206,93543,40834,,3275,2668,inactive
CtsL4 (Cathepsin L4),DRSC02849,1.00e5,74470,,2987,5985,inactive
Incenp (Inner centromere protein),DRSC06116,1.53e5,1.14e5,,6124,4727,inactive
fs(1)K10 (female sterile (1) K10),DRSC18775,1.56e5,83299,,3782,2912,inactive
CG7990,DRSC19296,5.71e5,2.80e5,,36870,7241,inactive
CG7990,DRSC20069,54947,46432,,1574,1146,inactive
Crk (Crk oncogene),DRSC17163,2.03e5,88016,,4283,3497,inactive
